In the supplement of paper PMC10849652:
The other results are listed elsewhere or left out. Residues, ends and D or L forms follow the SMILES beside them. *: point of attachment. Cbz = O=C(OCc1ccccc1)*

The chains behind the UniProt entries cited, without tags or fusion partners. Where a name states a change or a piece, a line headed by the entry shows the natural chain unless it says otherwise.
UniProt Q9NX38: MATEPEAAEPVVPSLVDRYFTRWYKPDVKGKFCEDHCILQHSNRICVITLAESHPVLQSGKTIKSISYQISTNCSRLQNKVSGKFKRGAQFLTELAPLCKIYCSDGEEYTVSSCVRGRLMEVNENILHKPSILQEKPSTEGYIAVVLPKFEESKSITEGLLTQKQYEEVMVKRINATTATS
UniProt Q9Y305: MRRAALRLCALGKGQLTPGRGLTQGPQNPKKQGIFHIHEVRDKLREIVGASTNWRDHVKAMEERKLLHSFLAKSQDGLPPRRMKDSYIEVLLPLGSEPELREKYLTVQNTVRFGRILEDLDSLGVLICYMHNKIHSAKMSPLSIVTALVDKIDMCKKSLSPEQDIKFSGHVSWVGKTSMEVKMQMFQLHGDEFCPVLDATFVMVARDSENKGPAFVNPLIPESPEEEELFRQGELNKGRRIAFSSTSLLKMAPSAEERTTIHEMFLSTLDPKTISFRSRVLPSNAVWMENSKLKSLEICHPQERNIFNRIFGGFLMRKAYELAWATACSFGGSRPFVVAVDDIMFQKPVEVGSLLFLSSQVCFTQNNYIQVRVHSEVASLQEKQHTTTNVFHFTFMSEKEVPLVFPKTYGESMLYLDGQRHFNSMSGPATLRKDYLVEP
UniProt Q96IU4: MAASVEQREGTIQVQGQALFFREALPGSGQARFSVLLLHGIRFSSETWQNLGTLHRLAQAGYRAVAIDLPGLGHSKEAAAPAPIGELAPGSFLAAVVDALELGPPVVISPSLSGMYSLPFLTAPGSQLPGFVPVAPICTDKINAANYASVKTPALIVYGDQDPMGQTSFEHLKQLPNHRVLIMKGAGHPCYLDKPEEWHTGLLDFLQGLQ
UniProt Q9UKV3: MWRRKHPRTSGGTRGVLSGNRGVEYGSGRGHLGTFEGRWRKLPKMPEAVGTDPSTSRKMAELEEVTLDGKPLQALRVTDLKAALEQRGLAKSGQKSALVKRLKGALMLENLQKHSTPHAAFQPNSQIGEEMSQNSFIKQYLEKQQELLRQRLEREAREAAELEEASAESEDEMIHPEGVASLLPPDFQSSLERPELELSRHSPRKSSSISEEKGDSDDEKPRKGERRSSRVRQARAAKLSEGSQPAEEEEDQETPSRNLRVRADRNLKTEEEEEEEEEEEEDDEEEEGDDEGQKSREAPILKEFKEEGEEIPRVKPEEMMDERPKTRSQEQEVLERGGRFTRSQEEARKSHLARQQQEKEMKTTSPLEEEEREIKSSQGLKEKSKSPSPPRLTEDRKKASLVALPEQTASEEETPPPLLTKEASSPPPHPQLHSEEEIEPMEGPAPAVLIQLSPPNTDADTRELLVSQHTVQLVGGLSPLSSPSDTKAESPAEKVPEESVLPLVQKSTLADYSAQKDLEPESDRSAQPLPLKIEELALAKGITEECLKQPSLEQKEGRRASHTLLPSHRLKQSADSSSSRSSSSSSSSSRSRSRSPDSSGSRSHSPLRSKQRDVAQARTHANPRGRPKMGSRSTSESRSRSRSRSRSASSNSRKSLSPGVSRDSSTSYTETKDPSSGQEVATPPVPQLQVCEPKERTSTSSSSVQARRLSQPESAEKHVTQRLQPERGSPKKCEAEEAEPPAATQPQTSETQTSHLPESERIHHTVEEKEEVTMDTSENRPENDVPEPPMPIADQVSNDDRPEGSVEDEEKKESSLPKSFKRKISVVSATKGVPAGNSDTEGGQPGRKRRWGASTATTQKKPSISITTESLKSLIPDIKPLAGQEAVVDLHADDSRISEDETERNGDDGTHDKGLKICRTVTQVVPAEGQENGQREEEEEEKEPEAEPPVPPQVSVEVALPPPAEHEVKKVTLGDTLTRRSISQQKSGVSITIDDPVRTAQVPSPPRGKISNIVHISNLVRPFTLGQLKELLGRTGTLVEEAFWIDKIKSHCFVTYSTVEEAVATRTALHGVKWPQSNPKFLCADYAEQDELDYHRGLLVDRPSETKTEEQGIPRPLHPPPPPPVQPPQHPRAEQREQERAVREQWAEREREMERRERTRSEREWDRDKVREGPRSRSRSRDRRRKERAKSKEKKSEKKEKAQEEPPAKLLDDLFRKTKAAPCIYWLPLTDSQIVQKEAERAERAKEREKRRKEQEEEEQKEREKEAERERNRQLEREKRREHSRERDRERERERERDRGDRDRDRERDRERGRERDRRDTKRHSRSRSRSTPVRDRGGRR
UniProt P22303: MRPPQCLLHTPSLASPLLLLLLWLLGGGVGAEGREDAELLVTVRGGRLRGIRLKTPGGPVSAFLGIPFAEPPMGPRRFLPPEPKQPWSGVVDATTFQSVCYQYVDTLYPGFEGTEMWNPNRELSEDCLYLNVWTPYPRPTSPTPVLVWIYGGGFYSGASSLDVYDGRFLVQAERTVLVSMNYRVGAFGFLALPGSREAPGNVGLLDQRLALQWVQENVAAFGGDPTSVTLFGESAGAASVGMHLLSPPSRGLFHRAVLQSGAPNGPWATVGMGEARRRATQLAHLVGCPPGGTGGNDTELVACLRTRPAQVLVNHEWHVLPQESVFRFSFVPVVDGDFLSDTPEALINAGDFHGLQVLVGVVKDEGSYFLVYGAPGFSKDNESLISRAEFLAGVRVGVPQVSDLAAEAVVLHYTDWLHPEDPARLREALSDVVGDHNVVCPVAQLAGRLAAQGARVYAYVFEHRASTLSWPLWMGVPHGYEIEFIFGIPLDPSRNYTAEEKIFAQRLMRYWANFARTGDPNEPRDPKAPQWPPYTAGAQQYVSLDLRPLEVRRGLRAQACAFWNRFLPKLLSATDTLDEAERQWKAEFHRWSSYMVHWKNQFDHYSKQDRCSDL
UniProt Q6DHV7: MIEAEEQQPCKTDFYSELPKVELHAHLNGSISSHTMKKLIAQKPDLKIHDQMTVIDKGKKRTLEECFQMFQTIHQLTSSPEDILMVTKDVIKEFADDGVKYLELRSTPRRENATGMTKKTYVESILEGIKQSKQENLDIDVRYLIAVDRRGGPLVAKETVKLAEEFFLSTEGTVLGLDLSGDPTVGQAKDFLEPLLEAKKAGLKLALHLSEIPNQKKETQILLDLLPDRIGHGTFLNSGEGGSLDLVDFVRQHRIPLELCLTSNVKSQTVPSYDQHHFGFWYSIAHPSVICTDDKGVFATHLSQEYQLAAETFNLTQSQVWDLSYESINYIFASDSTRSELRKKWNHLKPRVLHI
UniProt Q9UG63: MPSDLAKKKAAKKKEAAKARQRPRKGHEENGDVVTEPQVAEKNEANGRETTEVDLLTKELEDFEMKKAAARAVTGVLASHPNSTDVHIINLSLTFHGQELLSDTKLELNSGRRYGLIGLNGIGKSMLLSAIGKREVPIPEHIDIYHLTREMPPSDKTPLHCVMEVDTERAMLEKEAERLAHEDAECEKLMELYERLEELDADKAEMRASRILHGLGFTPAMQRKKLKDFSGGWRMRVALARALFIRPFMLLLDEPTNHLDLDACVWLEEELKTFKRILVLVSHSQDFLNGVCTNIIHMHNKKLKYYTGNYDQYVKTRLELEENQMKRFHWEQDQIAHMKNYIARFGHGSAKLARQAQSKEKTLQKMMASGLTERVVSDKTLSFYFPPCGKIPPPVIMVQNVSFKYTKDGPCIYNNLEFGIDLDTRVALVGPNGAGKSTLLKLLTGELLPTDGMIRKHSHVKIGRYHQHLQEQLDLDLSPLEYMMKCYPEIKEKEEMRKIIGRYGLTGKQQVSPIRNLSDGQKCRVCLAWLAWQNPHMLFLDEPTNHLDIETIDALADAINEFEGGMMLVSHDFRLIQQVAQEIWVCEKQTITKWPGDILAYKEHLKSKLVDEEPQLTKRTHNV
UniProt Q9H845: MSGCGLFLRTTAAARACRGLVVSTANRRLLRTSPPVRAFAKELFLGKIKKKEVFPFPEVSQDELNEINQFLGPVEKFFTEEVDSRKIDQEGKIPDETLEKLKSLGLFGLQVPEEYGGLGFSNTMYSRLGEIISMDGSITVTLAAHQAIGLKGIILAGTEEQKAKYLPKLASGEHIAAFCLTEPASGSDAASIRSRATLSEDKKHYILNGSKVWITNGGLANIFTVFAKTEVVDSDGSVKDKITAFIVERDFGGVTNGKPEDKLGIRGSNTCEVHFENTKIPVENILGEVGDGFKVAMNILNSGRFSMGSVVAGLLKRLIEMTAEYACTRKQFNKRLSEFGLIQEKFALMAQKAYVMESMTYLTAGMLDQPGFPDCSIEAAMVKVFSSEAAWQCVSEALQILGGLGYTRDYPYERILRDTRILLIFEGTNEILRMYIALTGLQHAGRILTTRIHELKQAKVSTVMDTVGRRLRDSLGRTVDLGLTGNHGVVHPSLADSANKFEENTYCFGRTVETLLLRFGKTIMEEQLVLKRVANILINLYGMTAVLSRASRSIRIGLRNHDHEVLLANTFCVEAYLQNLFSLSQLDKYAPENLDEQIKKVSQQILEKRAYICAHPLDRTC
UniProt Q9NUJ1: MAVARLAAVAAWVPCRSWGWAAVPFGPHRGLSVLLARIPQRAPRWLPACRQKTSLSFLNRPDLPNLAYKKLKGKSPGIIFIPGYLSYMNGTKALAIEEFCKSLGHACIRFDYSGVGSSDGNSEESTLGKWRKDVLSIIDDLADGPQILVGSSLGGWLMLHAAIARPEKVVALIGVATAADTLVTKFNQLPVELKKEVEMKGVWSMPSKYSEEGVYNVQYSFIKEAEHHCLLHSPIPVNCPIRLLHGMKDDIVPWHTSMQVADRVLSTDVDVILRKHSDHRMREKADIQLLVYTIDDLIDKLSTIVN
UniProt Q5VST6: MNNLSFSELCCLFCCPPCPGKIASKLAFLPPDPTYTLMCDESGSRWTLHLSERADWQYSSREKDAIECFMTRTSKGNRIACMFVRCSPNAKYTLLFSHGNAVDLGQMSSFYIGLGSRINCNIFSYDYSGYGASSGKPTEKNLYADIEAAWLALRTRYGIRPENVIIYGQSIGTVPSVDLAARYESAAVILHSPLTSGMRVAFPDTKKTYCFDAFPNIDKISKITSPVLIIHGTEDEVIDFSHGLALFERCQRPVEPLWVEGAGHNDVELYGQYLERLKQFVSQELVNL
UniProt Q9NRN7: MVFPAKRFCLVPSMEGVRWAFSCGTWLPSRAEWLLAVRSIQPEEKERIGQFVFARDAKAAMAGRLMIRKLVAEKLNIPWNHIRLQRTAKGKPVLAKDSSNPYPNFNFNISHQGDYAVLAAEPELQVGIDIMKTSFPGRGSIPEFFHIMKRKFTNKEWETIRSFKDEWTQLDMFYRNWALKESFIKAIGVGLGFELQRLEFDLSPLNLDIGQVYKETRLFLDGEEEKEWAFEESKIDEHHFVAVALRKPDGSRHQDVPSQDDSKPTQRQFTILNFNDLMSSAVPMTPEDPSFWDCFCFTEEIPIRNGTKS
UniProt Q4L235: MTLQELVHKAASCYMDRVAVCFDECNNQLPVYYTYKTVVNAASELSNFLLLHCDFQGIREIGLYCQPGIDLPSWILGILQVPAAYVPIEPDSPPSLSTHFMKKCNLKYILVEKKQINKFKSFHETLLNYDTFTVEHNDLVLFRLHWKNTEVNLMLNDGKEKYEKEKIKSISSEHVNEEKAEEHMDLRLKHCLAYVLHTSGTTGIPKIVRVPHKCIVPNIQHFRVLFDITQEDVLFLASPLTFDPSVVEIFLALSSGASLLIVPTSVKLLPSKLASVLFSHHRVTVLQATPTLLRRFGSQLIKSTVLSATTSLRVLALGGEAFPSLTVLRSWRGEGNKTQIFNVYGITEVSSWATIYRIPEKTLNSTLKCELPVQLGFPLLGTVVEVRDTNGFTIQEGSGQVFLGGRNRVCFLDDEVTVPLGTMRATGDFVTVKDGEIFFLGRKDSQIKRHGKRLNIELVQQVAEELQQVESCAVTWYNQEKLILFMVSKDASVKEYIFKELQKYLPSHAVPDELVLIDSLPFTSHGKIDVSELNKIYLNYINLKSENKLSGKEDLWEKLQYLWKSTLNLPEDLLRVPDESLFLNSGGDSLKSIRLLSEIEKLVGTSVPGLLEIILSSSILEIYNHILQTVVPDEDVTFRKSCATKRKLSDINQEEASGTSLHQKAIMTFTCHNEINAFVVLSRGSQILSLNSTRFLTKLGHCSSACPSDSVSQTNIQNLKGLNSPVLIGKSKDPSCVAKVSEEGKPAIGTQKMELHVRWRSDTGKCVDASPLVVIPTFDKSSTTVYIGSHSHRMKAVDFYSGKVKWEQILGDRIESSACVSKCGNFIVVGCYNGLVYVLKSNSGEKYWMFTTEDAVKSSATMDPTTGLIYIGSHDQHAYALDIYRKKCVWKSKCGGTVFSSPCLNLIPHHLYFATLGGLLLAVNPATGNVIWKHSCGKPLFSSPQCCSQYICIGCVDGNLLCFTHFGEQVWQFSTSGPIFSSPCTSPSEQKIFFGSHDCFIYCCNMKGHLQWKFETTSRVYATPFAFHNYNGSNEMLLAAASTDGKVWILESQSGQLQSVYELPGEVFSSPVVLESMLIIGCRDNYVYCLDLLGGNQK

Columns and labels:
Experiment in all cases: log2 fold change, soluble protein after heating vs DMSO (PISA); higher = thermal stabilisation; K562 cells, 10 uM, 30 min; active = over 0.2 and 3.5 SD of the protein, either way, in both replicates (recomputed)
[1] = compound: C1=CC=C(C=C1)[C@H](COC2=CC3=C(C=C2)NC(=O)N3)NC(=O)C4=CC=CN(C4=O)CC5=CC(=C(C=C5)F)F
Outline: (§1)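 Values are thermal stability changes relative to control samples and are taken from duplicates. They are stated as log2 fold changes. Before quantification by TMTpro 16plex LC-MS/MS with equalised channel sums, K562 cells at 2×10^6 cells/mL were treated with 10 μM compound for 30 min, heated in aliquots for 3 min across 48°C-58°C, pooled, extracted in PBS with 0.5% NP-40 at 4°C, and centrifuged at 21,000xg for 90 min to give the soluble supernatant.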

[2] = compound: CC1=C(SC2=C1C(=N[C@H](C3=NN=C(N32)C)CC(=O)N)C4=CC=C(C=C4)Cl)C
Outline: as §1

[3] = compound: CC1=C2C(=CC=C1)N=C(N(C2=O)C3=CC=CC=C3C)CN4C=NC5=C(N=CN=C54)N
Outline: as §1

[4] = compound: Cc1sc2c(c1C)C(c1ccc(Cl)cc1)=N[C@@H](CC(=O)OC(C)(C)C)c1nnc(C)n1-2
Outline: as §1

[5] = compound: c1ccc([C@@H]2C[C@H]2NC2CCNCC2)cc1
Outline: as §1

[6] = compound: C1=CC(=C(C=C1Cl)C2=NC3=NC=CN=C3C(=N2)NC4=CC=NC=C4)F
Outline: as §1

[7] = compound: C1=CC2=NC=CN=C2C=C1/C=C/3\C(=O)NC(=O)S3
Outline: as §1

[8] = compound: C1=CC=C(C=C1)C2=NC(=C(N2)C3=CC=NC=C3)C4=CC(=C(C=C4)Cl)O
Outline: as §1

ibrutinib = compound: C=CC(=O)N1CCC[C@@H](n2nc(-c3ccc(Oc4ccccc4)cc3)c3c(N)ncnc32)C1 [ibrutinib]
Outline: as §1

ralimetinib = compound: CC(C)(C)Cn1c(N)nc2ccc(-c3[nH]c(C(C)(C)C)nc3-c3ccc(F)cc3)nc21 [ralimetinib]
Outline: as §1

[9] = compound: CC(C)(O)CC(=O)NCCn1ccc2ncnc(Nc3ccc(Oc4cccc(C(F)(F)F)c4)c(Cl)c3)c21
Outline: as §1

[10] = compound: CC(C)C[C@@H](C=O)NC(=O)[C@H](CC(C)C)NC(=O)[C@H](CC(C)C)NC(=O)OCc1ccccc1
Outline: as §1

[11] = compound: CC1=C(C=C(C=C1)NC(=O)C2=CC(=CC=C2)C(C)(C)C#N)NC3=CC4=C(C=C3)N=CN(C4=O)C
Outline: as §1

[12] = compound: CC1=C(C=C(C=C1)NC(=O)C2=CC(=CC=C2)N(C)C)NC(=O)C3=CC=C(C=C3)O
Outline: as §1

[13] = compound: CC1=CC=C(C=C1)SC2=C3C=C(SC3=CN=C2)C(=O)N
Outline: as §1

Nexturastat A = compound: CCCCN(Cc1ccc(C(=O)NO)cc1)C(=O)Nc1ccccc1 [Nexturastat A]
Outline: as §1

[14] = compound: CCCS(=O)(=O)Nc1ccc(F)c(C(=O)c2c[nH]c3ncc(Cl)cc23)c1F
Outline: as §1

barasertib = compound: CCN(CCCOc1ccc2c(Nc3cc(CC(=O)Nc4cccc(F)c4)[nH]n3)ncnc2c1)CCOP(=O)(O)O [barasertib]
Outline: as §1

volasertib = compound: CC[C@@H]1C(=O)N(C)c2cnc(Nc3ccc(C(=O)N[C@H]4CC[C@H](N5CCN(CC6CC6)CC5)CC4)cc3OC)nc2N1C(C)C [volasertib]
Outline: as §1

epoxomicin = compound: CC[C@H](C)[C@@H](C(=O)N[C@@H]([C@@H](C)O)C(=O)N[C@@H](CC(C)C)C(=O)[C@]1(CO1)C)NC(=O)[C@H]([C@@H](C)CC)N(C)C(=O)C [epoxomicin]
Outline: as §1

rosiglitazone = compound: CN(CCOC1=CC=C(C=C1)C[C@H]2C(=O)NC(=O)S2)C3=CC=CC=N3 (racemic) [rosiglitazone]
Outline: as §1

sotrastaurin = compound: CN1CCN(c2nc(C3=C(c4c[nH]c5ccccc45)C(=O)NC3=O)c3ccccc3n2)CC1 [sotrastaurin]
Outline: as §1

filanesib = compound: CON(C)C(=O)N1N=C(c2cc(F)ccc2F)S[C@@]1(CCCN)c1ccccc1 [filanesib]
Outline: as §1

[15] = compound: COc1cc2nc(-c3cc(F)ccc3O)nc(N[C@@H]3CNC[C@H]3C(C)(C)O)c2cc1OC
Outline: as §1

lapatinib = compound: CS(=O)(=O)CCNCc1ccc(-c2ccc3ncnc(Nc4ccc(OCc5cccc(F)c5)c(Cl)c4)c3c2)o1 [lapatinib]
Outline: as §1

[16] = compound: CS(=O)(=O)c1ccc(-c2cnc(N)c(C(=O)Nc3ccccc3)n2)cc1
Outline: as §1

[17] = compound: C[C@@H]1COCCN1C2=NC(=NC(=C2)C3(CC3)S(=O)(=O)C)C4=C5C=CNC5=CC=C4
Outline: as §1

ispinesib = compound: Cc1ccc(C(=O)N(CCCN)[C@@H](c2nc3cc(Cl)ccc3c(=O)n2Cc2ccccc2)C(C)C)cc1 [ispinesib]
Outline: as §1

bafetinib = compound: Cc1ccc(NC(=O)c2ccc(CN3CC[C@H](N(C)C)C3)c(C(F)(F)F)c2)cc1Nc1nccc(-c2cncnc2)n1 [bafetinib]
Outline: as §1

[18] = compound: Cn1cc(-c2ccc3nnc(C(F)(F)c4ccc5ncccc5c4)n3n2)cn1
Outline: as §1

tipifarnib = compound: Cn1cncc1[C@@](N)(c1ccc(Cl)cc1)c1ccc2c(c1)c(-c1cccc(Cl)c1)cc(=O)n2C [tipifarnib]
Outline: as §1

[19] = compound: NC(=O)Nc1cc(-c2cccc(F)c2)sc1C(=O)N[C@H]1CCCNC1
Outline: as §1

entinostat = compound: Nc1ccccc1NC(=O)c1ccc(CNC(=O)OCc2cccnc2)cc1 [entinostat]
Outline: as §1

[20] = compound: O=C1NC(=O)C(c2cnc3ccccn23)=C1c1cn2c3c(cc(F)cc13)CN(C(=O)N1CCCCC1)CC2
Outline: as §1

Measured: log2 fold change

ABITRAM (UniProt Q9NX38)
inactive: [1] -0.037 | [2] 0.145 | [3] 0.032 | [4] -0.044 | [5] -0.016

AAK1, A0A096LP25
inactive: [1] -0.056 | [2] -0.041 | [3] -0.046 | [4] -0.024 | [5] 0.072

ACTR2 (UniProt P61160)
inactive: [1] 0.022 | [2] 0.019 | [3] 0.026 | [4] -0.012 | [5] -0.01

ACOT9 isoform 4 (UniProt Q9Y305)
inactive: [1] 0.047 | [2] -0.03 | [3] -0.068 | [4] 0.117 | [5] -0.086

ABCC5 (UniProt O15440)
inactive: [1] -0.034 | [2] 0.082 | [3] -0.02 | [4] -0.001 | [5] -0.025

ABHD14B (UniProt Q96IU4)
inactive: [1] -0.008 | [2] 0.078 | [3] 0.05 | [4] -0.068 | [5] -0.016

ACIN1 (UniProt Q9UKV3)
inactive: [1] 0.003 | [2] 0.095 | [3] 0.038 | [4] 0.023 | [5] -0.018

ABCB5 (UniProt Q2M3G0)
inactive: [1] 0.054

ACHE isoform 2 (UniProt P22303)
inactive: [6] -0.111 | [7] -0.124 | [8] -0.708 | [1] 0.055 | ibrutinib 0.097 | ralimetinib -0.492 | [9] 0.197 | [10] 0.258 | [11] 0.067 | [12] 0 | [13] -0.378 | Nexturastat A 0.103 | [14] -0.252 | barasertib 0.208 | volasertib 0.161 | epoxomicin -0.191 | rosiglitazone -0.037 | sotrastaurin -0.082 | filanesib -0.307 | [15] 0.524 | lapatinib -0.563 | [16] -0.015 | [17] -0.169 | ispinesib -0.552 | bafetinib -0.407 | [18] 0.224 | tipifarnib 0.356 | [19] 0.065 | entinostat 0.244 | [20] -0.061

ADAL (UniProt Q6DHV7)
inactive: [1] -0.012 | [2] 0.058 | [3] 0.03 | [4] -0.009 | [5] -0.008

ACTN4 (UniProt O43707)
inactive: [1] 0.054 | [2] 0.016 | [3] 0.008 | [4] -0.013 | [5] 0.006

ABCF2 isoform 2 (UniProt Q9UG63)
inactive: [1] -0.017 | [2] 0.016 | [3] 0.008 | [4] 0.012 | [5] -0.038

ACAD9 (UniProt Q9H845)
inactive: [1] 0.012 | [2] 0.028 | [3] 0.031 | [4] 0.022 | [5] 0.009

ACTB, A0A2R8Y793
inactive: [1] 0.028 | [2] 0.024 | [3] 0.001 | [4] 0.001 | [5] -0.011

ABHD10 (UniProt Q9NUJ1)
inactive: [1] -0.01 | [2] -0.04 | [3] 0.001 | [4] -0.007 | [5] 0.033

A2M (UniProt P01023)
inactive: [1] 0.043 | [2] -0.134 | [3] 0.052 | [4] 0.072 | [5] 0.181

ACP2 (UniProt P11117)
inactive: [1] 0.027 | [2] -0.023 | [3] 0.008 | [4] -0.023 | [5] 0.024

ABHD17B (UniProt Q5VST6)
inactive: [1] 0.043 | [2] 0.015 | [3] 0.032 | [4] -0.038 | [5] 0.022

ABI1 (UniProt Q8IZP0)
inactive: [1] -0.059 | [2] 0.1 | [3] 0.11 | [4] -0.107 | [5] -0.024

AASDHPPT (UniProt Q9NRN7)
inactive: [1] -0.031 | [2] 0.073 | [3] 0.076 | [4] 0.002 | [5] 0.008

Quoted from above (2 entries):
ABCC5 (UniProt O15440)
inactive: [1] -0.034 | [2] 0.082 | [3] -0.02 | [4] -0.001 | [5] -0.025

ABHD14B (UniProt Q96IU4)
inactive: [1] -0.008 | [2] 0.078 | [3] 0.05 | [4] -0.068 | [5] -0.016

Next part

ACBD3 (UniProt Q9H3P7)
inactive: [1] -0.01 | [2] 0.04 | [3] 0.034 | [4] 0.001 | [5] -0.02

AASDH (UniProt Q4L235)
inactive: [1] 0.047 | [2] 0.054 | [3] -0.25 | [4] -0.05 | [5] 0.037

ACTA1 (UniProt P68133)
inactive: [1] 0.016 | [2] 0.034 | [3] 0.009 | [4] 0.005 | [5] 0.032
